## Screening data, single-dose tests

Sequences of proteins named here, by UniProt entry; tags and fusion partners are left off. Residues count along the entry.
UniProt I6X8D2, whole entry: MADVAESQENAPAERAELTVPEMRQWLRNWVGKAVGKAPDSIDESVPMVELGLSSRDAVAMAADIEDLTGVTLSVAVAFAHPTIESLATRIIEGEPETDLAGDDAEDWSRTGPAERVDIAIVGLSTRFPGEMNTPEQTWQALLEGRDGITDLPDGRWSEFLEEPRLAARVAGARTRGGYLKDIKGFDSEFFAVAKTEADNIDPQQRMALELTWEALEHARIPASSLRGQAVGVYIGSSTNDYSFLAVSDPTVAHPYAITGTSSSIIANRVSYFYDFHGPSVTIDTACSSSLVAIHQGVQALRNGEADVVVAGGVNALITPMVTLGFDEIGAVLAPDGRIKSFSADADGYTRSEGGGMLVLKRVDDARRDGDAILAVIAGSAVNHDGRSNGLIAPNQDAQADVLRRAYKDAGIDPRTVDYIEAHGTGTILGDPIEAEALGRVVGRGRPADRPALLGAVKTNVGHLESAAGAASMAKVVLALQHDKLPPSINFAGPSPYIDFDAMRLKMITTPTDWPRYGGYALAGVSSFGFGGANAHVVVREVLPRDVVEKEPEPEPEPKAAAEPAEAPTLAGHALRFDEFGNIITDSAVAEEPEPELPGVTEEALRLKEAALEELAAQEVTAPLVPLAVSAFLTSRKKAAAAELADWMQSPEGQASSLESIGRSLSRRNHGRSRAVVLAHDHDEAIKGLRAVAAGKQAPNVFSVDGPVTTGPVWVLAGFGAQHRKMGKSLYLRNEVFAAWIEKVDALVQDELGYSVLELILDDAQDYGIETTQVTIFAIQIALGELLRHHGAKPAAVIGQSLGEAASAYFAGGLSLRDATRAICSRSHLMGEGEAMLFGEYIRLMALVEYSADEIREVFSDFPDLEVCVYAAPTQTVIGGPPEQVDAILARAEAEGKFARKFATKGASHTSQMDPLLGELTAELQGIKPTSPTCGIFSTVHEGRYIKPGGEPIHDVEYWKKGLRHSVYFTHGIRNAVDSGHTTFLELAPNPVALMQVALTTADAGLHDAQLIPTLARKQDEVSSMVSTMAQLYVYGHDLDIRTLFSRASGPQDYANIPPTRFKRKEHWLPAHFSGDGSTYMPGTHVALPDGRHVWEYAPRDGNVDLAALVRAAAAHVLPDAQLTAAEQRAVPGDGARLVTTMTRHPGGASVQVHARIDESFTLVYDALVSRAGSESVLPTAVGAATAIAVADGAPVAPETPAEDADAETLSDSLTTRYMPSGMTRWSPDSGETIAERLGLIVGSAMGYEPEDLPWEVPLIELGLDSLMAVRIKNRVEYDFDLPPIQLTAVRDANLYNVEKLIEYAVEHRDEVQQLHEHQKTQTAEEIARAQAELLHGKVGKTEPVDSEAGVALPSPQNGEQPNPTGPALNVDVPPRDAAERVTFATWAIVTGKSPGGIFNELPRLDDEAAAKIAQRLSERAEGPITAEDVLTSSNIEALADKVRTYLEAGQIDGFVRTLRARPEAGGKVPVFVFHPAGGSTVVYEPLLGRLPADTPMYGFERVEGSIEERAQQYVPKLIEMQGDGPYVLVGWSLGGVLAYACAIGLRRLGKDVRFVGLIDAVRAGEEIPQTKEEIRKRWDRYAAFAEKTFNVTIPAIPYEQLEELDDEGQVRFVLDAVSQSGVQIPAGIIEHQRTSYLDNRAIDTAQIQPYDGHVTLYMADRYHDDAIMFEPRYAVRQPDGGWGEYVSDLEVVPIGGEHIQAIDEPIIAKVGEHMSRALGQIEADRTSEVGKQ
UniProt Q4DA54, 1-478: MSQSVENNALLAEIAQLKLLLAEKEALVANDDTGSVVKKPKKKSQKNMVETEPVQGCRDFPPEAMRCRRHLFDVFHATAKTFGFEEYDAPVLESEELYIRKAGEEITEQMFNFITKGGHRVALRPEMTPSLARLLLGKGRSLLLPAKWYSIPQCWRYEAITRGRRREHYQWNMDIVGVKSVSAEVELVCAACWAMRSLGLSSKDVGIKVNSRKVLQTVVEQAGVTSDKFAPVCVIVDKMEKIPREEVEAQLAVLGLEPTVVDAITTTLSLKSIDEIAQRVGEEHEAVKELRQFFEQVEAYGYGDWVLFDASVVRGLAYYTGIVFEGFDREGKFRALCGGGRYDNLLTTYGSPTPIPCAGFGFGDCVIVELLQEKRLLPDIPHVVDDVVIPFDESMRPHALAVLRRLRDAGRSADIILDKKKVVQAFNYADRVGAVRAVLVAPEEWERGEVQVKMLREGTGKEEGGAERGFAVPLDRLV
UniProt A4I591, 1-473: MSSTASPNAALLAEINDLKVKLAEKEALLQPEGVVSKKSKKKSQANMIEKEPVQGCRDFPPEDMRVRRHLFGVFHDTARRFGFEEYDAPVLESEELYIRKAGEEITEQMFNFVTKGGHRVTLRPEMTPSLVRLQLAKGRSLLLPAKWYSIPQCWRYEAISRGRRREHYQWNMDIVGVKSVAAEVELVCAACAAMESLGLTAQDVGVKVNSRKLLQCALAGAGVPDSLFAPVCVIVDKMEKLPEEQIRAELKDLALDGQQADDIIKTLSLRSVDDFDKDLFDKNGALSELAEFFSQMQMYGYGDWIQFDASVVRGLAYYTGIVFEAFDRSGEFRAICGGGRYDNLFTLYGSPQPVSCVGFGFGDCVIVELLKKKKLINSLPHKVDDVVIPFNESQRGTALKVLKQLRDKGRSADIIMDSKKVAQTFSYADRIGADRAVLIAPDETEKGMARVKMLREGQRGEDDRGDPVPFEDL

The values are deposited in ChEMBL (CHEMBL3988442, “University of Dundee, Small-Polar-MMV Screening Library” (2021)).

Values are the deposited “Percent Effect”, in %.
How 0% and 100% were set is not recorded. Most values in the screen are low, and negative values occur.
This is an unselected part of the compounds tested.
A dash means the value is not listed here; it may have been measured.

A: 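Polyketide synthase Pks13, Mycobacterium tuberculosis (UniProt I6X8D2). Enzyme assay of the thioesterase domain of polyketide synthase 13; the read-out is not stated. Concentration: 30 µM. The record gives no direction; the compounds picked for IC50 retests had high values, so higher reads as stronger inhibition. Size under these conditions: about 67,000 compounds, about 300 of them at 50% or above in at least one test.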
B: 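Histidine-tRNA ligase, Trypanosoma cruzi CL Brener (UniProt Q4DA54). Enzyme assay of histidyl-tRNA synthetase; the read-out is not stated. Concentration: 30 µM. Higher reads as stronger inhibition (inferred: compounds with an IC50 in retests scored well above the rest). Size under these conditions: about 69,000 compounds, about 31 of them at 50% or above in at least one test.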
C: 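Histidine-tRNA ligase, Leishmania infantum (UniProt A4I591). Enzyme assay of histidyl-tRNA synthetase; the read-out is not stated. Concentration: 30 µM. Higher reads as stronger inhibition (inferred: compounds with an IC50 in retests scored well above the rest). The assay is labelled LdHisRS but filed under L. infantum. Size under these conditions: about 69,000 compounds, about 410 of them at 50% or above in at least one test.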

Compound	A	B	C
CC(=O)N1C[C@@H](F)[C@@H](OCc2nc3ccccc3o2)C1	-15.85%	7.609%	4.054%
CCCn1ncc(CN2CCCCC2CCCOC)c1C (stereo not shown)	-28.29%	5.202%	12%
Nc1cccnc1N1CCC(C(F)(F)F)CC1	-22.52%	6.25%	18.75%
COCCN1CCC12CCN(C(=O)Cc1cccs1)C2 (stereo not shown)	-0.03661%	4.598%	22%
Cc1cc(NC(=O)N2CCCC2CN2CCOCC2)nn1C (stereo not shown)	-36.52%	6.077%	1.042%
Cc1ccc2c(c1)C1(CCNCC1)CC2N1CCOCC1 (stereo not shown)	3.1%	9.677%	-21.21%
CC(C)(C)c1cc(=O)n2c(n1)SCC(C(=O)NCc1ccccn1)C2 (stereo not shown)	-9.271%	10%	15.22%
Cc1cnn(CC2CCCCN2CC(=O)Nc2cccnc2)c1 (stereo not shown)	-10.43%	-3.125%	13.58%
CCn1c(C)nnc1CN(C)C1CCN(CCn2cccn2)C1 (stereo not shown)	-11.67%	5.66%	18.67%
CN(C)C(=O)N1CCC2(CC1)CN(Cc1ccccn1)C(=O)CO2	-10.68%	4%	2.655%
Cc1cc(C(=O)N2CCCC2c2nc(O)cc(C(C)C)n2)on1 (stereo not shown)	-0.7908%	3.333%	-2.062%
Fc1ccc(C2(CNC3=NCCCN3)CCC2)cc1	-13.15%	2.128%	12.86%
Cc1ccc(N2CC[C@]3(O)CCN(CCN4CCCC4=O)C[C@@H]3C2)nn1	-9.597%	7.071%	13.11%
CSCC[C@H](N)c1nnc(SCC(=O)Nc2ccc(Br)cc2)o1	-20.16%	4.878%	10.53%
O=C(Cc1ccon1)N1CCN(c2ccncc2Cl)CC1	-	5%	15.32%
Cc1nn(Cc2ccc(C(=O)NCCCN3CCCC3=O)o2)c(C)c1Cl	-4.429%	4.95%	14.29%
CCc1nc(C)sc1CN1CC[C@](O)(CC)[C@H](O)C1	-3.858%	8.911%	14.29%
O=C([C@H]1C[C@H]2OCC[C@H]2N(Cc2ccco2)C1)N1CCCO1	-27.83%	1.493%	22.22%
N#CC1(C(=O)N2Cc3cc(-c4cc[nH]n4)ccc3C2c2cnco2)CC1 (stereo not shown)	-25.05%	1.266%	13.79%
CC(C#N)CNS(=O)(=O)c1ccc(Br)c(F)c1 (stereo not shown)	-13.69%	1.587%	-8.824%
CCC(=O)NC1CCCN(c2cncc(OCc3ccccc3)n2)C1 (stereo not shown)	15.84%	5.025%	20%
CCOCC1CN(S(=O)(=O)c2cccc(C)c2)Cc2nccn2C1 (stereo not shown)	-14.39%	6.533%	19.8%
COc1cccc(S(=O)(=O)CCNC(C)Cn2cccn2)c1 (stereo not shown)	-13.73%	2.381%	8.889%
COc1ccc(F)cc1C(=O)C1CCCN(Cc2ccc(C)s2)C1 (stereo not shown)	-30.46%	3.03%	0%
O=C(NCCSc1ccccc1F)NCc1cccnc1	-16.62%	10%	4.505%
CCCN(CCO)C(=O)C1CCC(=O)N(CCc2ccc(Cl)cc2)C1 (stereo not shown)	-2.927%	0%	20.19%
Cc1nn(CC(=O)Nc2cccc(F)c2)c(N)c1C#N	-9.635%	5.946%	8.547%
COCc1ccc(CNC(=O)CN2CCc3ccccc32)cc1	-12.17%	12.81%	26.03%
CCS(=O)(=O)CC(=O)NC(C)c1ccccc1Oc1ccccc1 (stereo not shown)	-13.36%	5%	9.91%
CC(NCCCN1CCCC1=O)c1ccc(F)cc1N(C)C (stereo not shown)	-4.133%	-7.216%	-1.149%
CS(=O)(=O)N1CC[C@H]2C[C@@H](C(=O)N3CCOCC3)O[C@@H]2C1	-8.702%	2.703%	-3.774%
CCOCCCNC(=O)C(NC(=O)Cc1cccs1)c1ccc(C)cc1 (stereo not shown)	3.035%	-2.439%	18.42%
Cc1noc(C)c1CN1CCN(C(=O)Cn2cncn2)CC1	-12.39%	-1.695%	16.98%
Cc1ccc(N2C[C@H]3CCN(Cc4ccncc4)C[C@H]3C2)nn1	12.1%	6.533%	13.86%
CCc1c(O)nc(SC(C)CC)n(-c2ccccc2)c1=O (stereo not shown)	-14.11%	4.202%	-26.45%
Cc1oc(-c2ccsc2)nc1CC(=O)NCCS(C)(=O)=O	-9.43%	4.184%	16.04%
CN1CCN(Cc2noc(CCc3nc(-c4ccccc4)no3)n2)CC1	-18.7%	0%	8.571%
Fc1cc(CNCc2ccc3c(c2)CCO3)ccc1N1CCOCC1	-10.17%	1.667%	0%
Cn1c(C2CCCN2C(=O)CN2CCCC2=O)nc2ccccc21 (stereo not shown)	-10.51%	5.357%	20.43%
Cc1occc1C(=O)N1C[C@@H]2CCCO[C@@H]2[C@H](NS(C)(=O)=O)C1	0.3076%	1.105%	6.306%
CCc1nnc2n1CCN(CC(=O)N(CC)C1=CCCCC1)C2	-7.087%	8.434%	10.26%

Some entries from above, unchanged:

| Compound | A | B | C |
|---|---|---|---|
| `CCn1c(C)nnc1CN(C)C1CCN(CCn2cccn2)C1` (stereo not shown) | -11.67% | 5.66% | 18.67% |
| `CN1CCN(Cc2noc(CCc3nc(-c4ccccc4)no3)n2)CC1` | -18.7% | 0% | 8.571% |
| `COCCN1CCC12CCN(C(=O)Cc1cccs1)C2` (stereo not shown) | -0.03661% | 4.598% | 22% |
| `Cc1occc1C(=O)N1C[C@@H]2CCCO[C@@H]2[C@H](NS(C)(=O)=O)C1` | 0.3076% | 1.105% | 6.306% |
| `Cc1cc(NC(=O)N2CCCC2CN2CCOCC2)nn1C` (stereo not shown) | -36.52% | 6.077% | 1.042% |